Results published in paper PMC10514931.
These are yes or no findings as the source states them, for the method shown. In cells and extracts the contact can be indirect. Some entries that bind do so weakly or less than the wild type.

Amino acid sequences for entries named in this document (tags omitted). A change or cut given only in a name is not applied to a line headed by its entry.
UniProt Q15672: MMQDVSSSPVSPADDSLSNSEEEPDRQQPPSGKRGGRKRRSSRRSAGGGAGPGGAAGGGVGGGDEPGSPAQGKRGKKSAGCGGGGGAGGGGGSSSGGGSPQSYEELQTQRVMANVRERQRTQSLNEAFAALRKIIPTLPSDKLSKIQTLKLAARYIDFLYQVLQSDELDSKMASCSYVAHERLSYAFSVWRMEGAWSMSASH

Tests used:
flag-TWIST1 S31A [1] = molecular target: flag-TWIST1 S31A (UniProt Q15672); test: proximity ligation; Duolink PLA in fixed HEK-293 T cells (WT or S31A flag-TWIST1), anti-TWIST1 and anti-CBLC antibodies, confocal microscopy
flag-TWIST1 S31A [2] = molecular target: flag-TWIST1 S31A (UniProt Q15672); test: co-IP; lysates of HEK-293 T cells overexpressing flag-TWIST1 WT or S31A, IP and western blot for CBLC

B1: Casitas B-Lineage Lymphoma Proto-Oncogene C (CBLC) (enzyme, UniProt Q9ULV8 1-474)
chain: MALAVAPWGRQWEEARALGRAVRMLQRLEEQCVDPRLSVSPPSLRDLLPRTAQLLREVAHSRRAAGGGGPGGPGGSGDFLLIYLANLEAKSRQVAALLPPRGRRSANDELFRAGSRLRRQLAKLAIIFSHMHAELHALFPGGKYCGHMYQLTKAPAHTFWRESCGARCVLPWAEFESLLGTCHPVEPGCTALALRTTIDLTCSGHVSIFEFDVFTRLFQPWPTLLKNWQLLAVNHPGYMAFLTYDEVQERLQACRDKPGSYIFRPSCTRLGQWAIGYVSSDGSILQTIPANKPLSQVLLEGQKDGFYLYPDGKTHNPDLTELGQAEPQQRIHVSEEQLQLYWAMDSTFELCKICAESNKDVKIEPCGHLLCSCCLAAWQHSDSQTCPFCRCEIKGWEAVSIYQFHGQATAEDSGNSSDQEGRELELGQVPLSAPPLPPRPDLPPRKPRNAQPKVRLLKGNSPPAALGPQDPAPA
flag-TWIST1 S31A [1]
  binding: binds
flag-TWIST1 S31A [2]
  binding: binds
